No constants are given. Whether binding was seen depends on the method and setting. In cells and extracts the contact can be indirect. Some binding calls cover weakened binding; strength is not graded here.
B1: minichromosome maintenance protein 3 (protein, UniProt P25205 1-808)
chain: MAGTVVLDDVELREAQRDYLDFLDDEEDQGIYQSKVRELISDNQYRLIVNVNDLRRKNEKRANRLLNNAFEELVAFQRALKDFVASIDATYAKQYEEFYVGLEGSFGSKHVSPRTLTSCFLSCVVCVEGIVTKCSLVRPKVVRSVHYCPATKKTIERRYSDLTTLVAFPSSSVYPTKDEENNPLETEYGLSVYKDHQTITIQEMPEKAPAGQLPRSVDVILDDDLVDKAKPGDRVQVVGTYRCLPGKKGGYTSGTFRTVLIACNVKQMSKDAQPSFSAEDIAKIKKFSKTRSKDIFDQLAKSLAPSIHGHDYVKKAILCLLLGGVERDLENGSHIRGDINILLIGDPSVAKSQLLRYVLCTAPRAIPTTGRGSSGVGLTAAVTTDQETGERRLEAGAMVLADRGVVCIDEFDKMSDMDRTAIHEVMEQGRVTIAKAGIHARLNARCSVLAAANPVYGRYDQYKTPMENIGLQDSLLSRFDLLFIMLDQMDPEQDREISDHVLRMHRYRAPGEQDGDAMPLGSAVDILATDDPNFSQEDQQDTQIYEKHDNLLHGTKKKKEKMVSAAFMKKYIHVAKIIKPVLTQESATYIAEEYSRLRSQDSMSSDTARTSPVTARTLETLIRLATAHAKARMSKTVDLQDAEEAVELVQYAYFKKVLEKEKKRKKRSEDESETEDEEEKSQEDQEQKRKRRKTRQPDAKDGDSYDPYDFSDTEEEMPQVHTPKTADSQETKESQKVELSESRLKAFKVALLDVFREAHAQSIGMNRLTESINRDSEEPFSSVEIQAALSKMQDDNQVMVSEGIIFLI

Chains of the proteins cited; added tags and fusions are not shown.
UniProt Q08211: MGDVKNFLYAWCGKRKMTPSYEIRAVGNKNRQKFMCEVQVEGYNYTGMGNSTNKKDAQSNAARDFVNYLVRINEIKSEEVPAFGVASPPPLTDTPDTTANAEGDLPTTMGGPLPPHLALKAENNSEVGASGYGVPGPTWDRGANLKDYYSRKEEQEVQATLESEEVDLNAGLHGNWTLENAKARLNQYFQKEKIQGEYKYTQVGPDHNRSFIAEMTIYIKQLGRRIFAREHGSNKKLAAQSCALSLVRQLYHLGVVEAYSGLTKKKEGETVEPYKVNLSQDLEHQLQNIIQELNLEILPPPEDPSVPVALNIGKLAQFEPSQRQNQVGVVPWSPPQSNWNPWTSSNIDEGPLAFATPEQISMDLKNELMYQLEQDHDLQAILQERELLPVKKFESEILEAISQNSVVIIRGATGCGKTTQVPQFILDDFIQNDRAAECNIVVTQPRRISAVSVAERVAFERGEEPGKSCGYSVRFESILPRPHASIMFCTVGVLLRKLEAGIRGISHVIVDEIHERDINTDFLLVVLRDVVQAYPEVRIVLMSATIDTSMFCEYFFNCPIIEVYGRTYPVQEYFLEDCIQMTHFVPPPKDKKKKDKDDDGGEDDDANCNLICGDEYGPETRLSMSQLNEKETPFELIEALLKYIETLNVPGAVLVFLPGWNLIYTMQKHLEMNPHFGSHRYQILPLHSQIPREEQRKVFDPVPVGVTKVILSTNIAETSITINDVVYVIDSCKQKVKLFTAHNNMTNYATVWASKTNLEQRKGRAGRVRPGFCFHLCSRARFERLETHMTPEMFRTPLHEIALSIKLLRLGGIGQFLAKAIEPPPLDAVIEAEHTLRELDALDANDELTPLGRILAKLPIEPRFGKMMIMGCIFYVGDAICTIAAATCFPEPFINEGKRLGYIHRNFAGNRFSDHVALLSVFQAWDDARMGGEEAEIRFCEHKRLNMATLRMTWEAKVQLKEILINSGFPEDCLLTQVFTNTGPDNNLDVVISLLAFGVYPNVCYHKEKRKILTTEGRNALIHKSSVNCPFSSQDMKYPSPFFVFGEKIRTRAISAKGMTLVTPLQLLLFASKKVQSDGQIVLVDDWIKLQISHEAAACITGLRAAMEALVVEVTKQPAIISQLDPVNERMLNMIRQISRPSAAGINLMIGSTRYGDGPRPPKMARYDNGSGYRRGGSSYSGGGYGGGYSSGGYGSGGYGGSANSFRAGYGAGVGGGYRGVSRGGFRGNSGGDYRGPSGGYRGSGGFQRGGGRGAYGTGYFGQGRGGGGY
UniProt P49736: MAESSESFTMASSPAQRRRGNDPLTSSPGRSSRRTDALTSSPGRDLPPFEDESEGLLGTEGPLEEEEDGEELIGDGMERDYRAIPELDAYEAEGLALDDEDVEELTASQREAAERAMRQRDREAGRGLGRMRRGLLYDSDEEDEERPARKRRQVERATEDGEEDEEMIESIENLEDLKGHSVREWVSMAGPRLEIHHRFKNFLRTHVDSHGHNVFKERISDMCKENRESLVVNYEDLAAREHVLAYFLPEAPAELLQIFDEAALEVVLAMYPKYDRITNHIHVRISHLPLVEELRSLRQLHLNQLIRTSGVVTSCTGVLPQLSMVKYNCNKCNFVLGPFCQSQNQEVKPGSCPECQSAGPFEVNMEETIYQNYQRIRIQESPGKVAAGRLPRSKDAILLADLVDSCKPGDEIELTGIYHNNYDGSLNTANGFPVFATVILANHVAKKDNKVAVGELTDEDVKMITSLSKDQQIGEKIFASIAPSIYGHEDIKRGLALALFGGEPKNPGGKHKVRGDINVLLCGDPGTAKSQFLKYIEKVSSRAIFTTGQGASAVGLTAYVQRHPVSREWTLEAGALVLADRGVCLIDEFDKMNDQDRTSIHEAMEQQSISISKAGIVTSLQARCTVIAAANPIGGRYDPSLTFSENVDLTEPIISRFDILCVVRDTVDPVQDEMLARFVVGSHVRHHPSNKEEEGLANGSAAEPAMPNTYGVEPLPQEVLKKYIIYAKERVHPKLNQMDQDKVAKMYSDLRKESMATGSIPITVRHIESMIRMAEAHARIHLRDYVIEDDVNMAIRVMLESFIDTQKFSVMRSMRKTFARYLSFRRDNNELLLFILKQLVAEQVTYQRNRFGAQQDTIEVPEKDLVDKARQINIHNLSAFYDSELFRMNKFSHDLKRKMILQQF

Biological target: DExH-box helicase 9 (human (endogenous in 293T, MNNG/HOS, U2OS)) (UniProt Q08211)
Assay: co-IP; whole-cell lysates of MNNG/HOS immunoprecipitated with anti-DHX9 antibody (IgG as negative control); immunoblotting with anti-MCM2, MCM3 and DHX9 antibodies

Row | Molecule | binding
1 | minichromosome maintenance protein 2 (from UniProt P49736 1-904) | binds
2 | B1 | binds

Source: PMC5432265
